Laboratory results: PubChem BioAssay AID686938 (Drosophila RNAi Screening Center, 2013)
Purpose: 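Knock-downs reducing store-operated calcium influx in Drosophila cells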 (primary screen). System: Drosophila S2R+ cells. Reagents: long dsRNA against Drosophila genes, about 0.25 µg dsRNA per well, roughly 10,000 cells. Time to read-out: 5 days of knock-down before the calcium assay. Treatment: thapsigargin (SERCA pump blocker) to empty calcium stores; entry signal taken 4 min after adding it. Measurement: 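Duplicate raw fluo-4 intensities per well from a plate reader, at rest and four minutes after thapsigargin emptied calcium stores; entry-to-rest ratio filled for only some wells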. Direction: calcium entry signal: higher = stronger calcium signal after store depletion; entry to resting ratio: higher = more calcium entry relative to resting level; resting calcium signal: higher = higher resting calcium signal. Call rule: 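Hit if the duplicate-averaged plate z-score for entry over resting signal is under −3; wells with weak total dye signal (Fmax z < −2) or more than 5 off-targets removed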. Meaning of the calls: active = strongly reduced calcium entry; inactive = no strong reduction.
The deposit covers about 23,000 reagents; below is a random part of those that have a named target and a result. Of all reagents, 75 (0.33%) were called active. 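Raw plate signals without normalisation; calls rest on plate z-scores that were not deposited; ratio present for only 364 wells.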 Names joined by + are all predicted targets of the reagent. Reagent sequences are not shown. Not given: the dose of the treatment.

target gene,DRSC id,"calcium entry signal, replicate 1 (fluorescence units)","calcium entry signal, replicate 2 (fluorescence units)",entry to resting ratio,"resting calcium signal, replicate 1 (fluorescence units)","resting calcium signal, replicate 2 (fluorescence units)",outcome
Phae2 (GeneID 34638),DRSC02555,3.78e7,2.59e7,,1.65e7,1.26e7,inactive
CG13367 (GeneID 31013),DRSC18485,2.55e7,4.45e7,2.1,1.20e7,1.88e7,inactive
CG13367 (GeneID 31013),DRSC18486,3.62e7,3.15e7,2.3,1.59e7,1.32e7,inactive
CG32683 (GeneID 31970),DRSC17990,3.08e7,5.19e7,,1.62e7,2.27e7,inactive
CG32683 (GeneID 31970),DRSC18232,1.97e7,2.91e7,,1.03e7,1.36e7,inactive
CG32683 (GeneID 31970),DRSC18233,2.45e7,2.93e7,,1.14e7,1.38e7,inactive
CCT1 (GeneID 42649),DRSC16877,1.56e7,1.76e7,,1.03e7,5.66e7,inactive
dgt3 (GeneID 37377),DRSC04349,2.90e7,,,1.64e7,,inactive
nerfin-1 (GeneID 44786),DRSC08729,1.96e7,3.02e7,,1.06e7,1.23e7,inactive
BomS5 (GeneID 50207),DRSC22306,2.84e7,4.59e7,,1.47e7,2.18e7,inactive
CG8272 (GeneID 35875),DRSC07134,4.92e7,4.82e7,,2.04e7,2.24e7,inactive
CG32187 (GeneID 39980),DRSC10521,4.89e7,7.40e7,,2.32e7,2.99e7,inactive
CG33998 (GeneID 3885594),DRSC05747,2.91e7,3.88e7,,1.34e7,2.10e7,inactive
CG14650 (GeneID 40566),DRSC12236,4.32e7,3.87e7,,1.77e7,1.74e7,inactive
CG3589 (GeneID 37966),DRSC04392,4.02e7,,,2.14e7,,inactive
CG30466 (GeneID 246629),DRSC05556,6.05e7,5.51e7,,3.23e7,2.19e7,inactive
Nepl7 (GeneID 34671),DRSC02495,4.49e7,2.25e7,,2.06e7,1.11e7,inactive
CG3430 (GeneID 33976),DRSC02713,3.83e7,,,2.24e7,,inactive
CG42544 (GeneID 8674002),DRSC12451,2.96e7,4.43e7,,1.57e7,2.18e7,inactive
CG31688 (GeneID 35314),DRSC02117,5.52e7,5.40e7,,2.65e7,2.32e7,inactive
CG31688 (GeneID 35314),DRSC02682,4.14e7,5.50e7,,2.19e7,2.35e7,inactive
JYalpha (GeneID 5740846),DRSC17224,4.73e7,5.68e7,2,2.38e7,2.65e7,inactive
CG17287 (GeneID 36939),DRSC06659,4.13e7,3.84e7,,1.58e7,1.85e7,inactive
nrv2 (GeneID 33953),DRSC00948,3.52e7,3.79e7,,2.07e7,1.80e7,inactive
nrv2 (GeneID 33953),DRSC03383,3.42e7,,,1.80e7,,inactive
lncRNA:CR31044 (GeneID 10178917),DRSC22451,2.93e7,2.91e7,,1.71e7,1.35e7,inactive
sad (GeneID 44858),DRSC16630,3.86e7,3.86e7,,1.81e7,1.98e7,inactive
CG15544 (GeneID 43655),DRSC15082,4.21e7,6.09e7,,2.13e7,2.52e7,inactive
fau (GeneID 41291),DRSC12816,2.87e7,4.20e7,,1.67e7,2.34e7,inactive
fau (GeneID 41291),DRSC12817,3.05e7,3.78e7,,1.52e7,2.03e7,inactive
fau (GeneID 41291),DRSC16943,4.20e7,5.54e7,,1.95e7,2.45e7,inactive
fau (GeneID 41291),DRSC16944,3.63e7,3.91e7,,1.79e7,2.09e7,inactive
fau (GeneID 41291),DRSC16945,4.14e7,4.25e7,,2.11e7,1.94e7,inactive
fau (GeneID 41291),DRSC22360,3.67e7,5.07e7,,1.80e7,2.83e7,inactive
CG13474 (GeneID 39600),DRSC10018,3.67e7,5.00e7,,2.08e7,2.60e7,inactive
CG4914 (GeneID 39597),DRSC10458,3.72e7,5.39e7,,1.75e7,2.17e7,inactive
Grl40a (GeneID 4379897),DRSC03677,3.27e7,6.11e7,,1.56e7,2.35e7,inactive
CG14480 (GeneID 36988),DRSC06452,4.74e7,5.60e7,,2.08e7,2.54e7,inactive
sisA (GeneID 32068),DRSC20374,4.12e7,3.92e7,,1.81e7,1.72e7,inactive
CG12920 (GeneID 36052),DRSC06234,3.22e7,3.93e7,,1.58e7,1.62e7,inactive
CG12239 (GeneID 31509),DRSC17832,2.59e7,2.33e7,,1.30e7,1.29e7,inactive
pon (GeneID 31394),DRSC18823,3.33e7,4.44e7,,1.74e7,1.95e7,inactive
CG32428 (GeneID 50105),DRSC11697,4.75e7,6.03e7,,2.33e7,3.76e7,inactive
CG32428 (GeneID 50105),DRSC11768,2.91e7,5.76e7,,1.39e7,2.25e7,inactive
Gasz (GeneID 35795),DRSC06829,4.86e7,3.88e7,,1.99e7,1.89e7,inactive
7SLRNA:CR42652 + 7SLRNA:CR32864,DRSC22968,3.34e7,2.78e7,,1.76e7,1.54e7,inactive
CG9109 (GeneID 33844),DRSC03139,4.81e7,,,2.17e7,,inactive
mRpL15 (GeneID 40261),DRSC11771,4.14e7,5.26e7,,1.82e7,3.30e7,inactive
Gpdh2 (GeneID 37672),DRSC04346,3.87e7,3.98e7,,2.11e7,1.82e7,inactive
Pcyt1 (GeneID 117353),DRSC08157,3.36e7,2.92e7,,1.60e7,1.53e7,inactive
Myo10A (GeneID 32028),DRSC19758,3.88e7,4.89e7,,1.91e7,2.46e7,inactive
Myo10A (GeneID 32028),DRSC19834,4.62e7,4.05e7,,2.15e7,1.71e7,inactive
Myo10A (GeneID 32028),DRSC19837,3.55e7,5.36e7,,1.69e7,2.24e7,inactive
Myo10A (GeneID 32028),DRSC23140,3.73e7,4.48e7,,1.95e7,2.06e7,inactive
mre11 (GeneID 34565),DRSC03570,4.23e7,3.47e7,,1.88e7,1.43e7,inactive
mre11 (GeneID 34565),DRSC22628,4.00e7,3.14e7,,2.43e7,1.46e7,inactive
CG4119 (GeneID 31481),DRSC17741,2.52e7,3.25e7,,1.34e7,1.66e7,inactive
Ugt303A1 (GeneID 53503),DRSC15641,2.06e7,2.20e7,,1.02e7,1.15e7,inactive

Reformatted: entries from further up
Phae2 (GeneID 34638) [DRSC02555]
- calcium entry signal, replicate 1 (fluorescence units): 3.78e7
- calcium entry signal, replicate 2 (fluorescence units): 2.59e7
- resting calcium signal, replicate 1 (fluorescence units): 1.65e7
- resting calcium signal, replicate 2 (fluorescence units): 1.26e7
- outcome: inactive

CG13367 (GeneID 31013) [DRSC18485]
- calcium entry signal, replicate 1 (fluorescence units): 2.55e7
- calcium entry signal, replicate 2 (fluorescence units): 4.45e7
- entry to resting ratio: 2.1
- resting calcium signal, replicate 1 (fluorescence units): 1.20e7
- resting calcium signal, replicate 2 (fluorescence units): 1.88e7
- outcome: inactive

CG13367 (GeneID 31013) [DRSC18486]
- calcium entry signal, replicate 1 (fluorescence units): 3.62e7
- calcium entry signal, replicate 2 (fluorescence units): 3.15e7
- entry to resting ratio: 2.3
- resting calcium signal, replicate 1 (fluorescence units): 1.59e7
- resting calcium signal, replicate 2 (fluorescence units): 1.32e7
- outcome: inactive

CG32683 (GeneID 31970) [DRSC17990]
- calcium entry signal, replicate 1 (fluorescence units): 3.08e7
- calcium entry signal, replicate 2 (fluorescence units): 5.19e7
- resting calcium signal, replicate 1 (fluorescence units): 1.62e7
- resting calcium signal, replicate 2 (fluorescence units): 2.27e7
- outcome: inactive
